Results from PubChem BioAssay AID504444 (National Center for Advancing Translational Sciences (NCATS), 2011).
The campaign covered roughly 360,000 compounds. About 7,500 (2.1%) were called active. This list was built around the results that the source calls inconclusive (neither active nor inactive); the mix of calls is not that of the screen. Calls come from the whole dose curve; as a rule, active = well fitted inhibition curve with a large enough effect; inconclusive = small, poorly fitted or top-dose-only effect, or effect the other way; inactive = flat fitted curve, though single readings scatter. Potencies beside an inconclusive call are fits to weak or partial responses and may not hold up.

test: Nrf2 qHTS screen for inhibitors; settings: A549 ARE-Fluc reporter, luciferase luminescence, 18-24 h; activity change, negative = inhibition: at 46 µM (top of the series); note: nearly all actives have a fitted effect of over 60% in size
How it was run: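 Quantitative HTS in A549 cells stably bearing an antioxidant response element-firefly luciferase construct. Inhibition of Nrf2-driven transcription was scored by luminescence after 18-24 h of compound exposure at 37 °C.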
% is set by controls: 0 for no effect and ±100 for the full control effect; potency is the fitted concentration of half-maximal effect.

SMILES	Potency	activity change, negative = inhibition
Cc1ccc(C(=O)N2CCC(c3c[nH]c4ccccc34)(c3c[nH]c4ccccc34)CC2)cc1	inconclusive: 29.1 µM [falling, single point]	
O=C(Nc1ccc(Cl)cc1)N(Cc1cccnc1)Cc1ccco1	inconclusive: 0.366 µM [falling, partial curve, poor fit]	
CC1(C)CC(NC(=S)Nc2ccc([N+](=O)[O-])cc2)CC(C)(C)N1	inconclusive: 0.0065 µM [falling, full curve, poor fit]	
C(=C\c1ccccc1)/C=N/Nc1nc2ccccc2s1	inconclusive: 9.2 µM [activator, partial curve]	
CCOC(=O)c1cc2occc2n1CC(=O)N1CCCc2ccccc21	inactive	
O=C(Nc1ccc2c3c(cccc13)CC2)c1ccc(Br)o1	inconclusive: 25.9 µM [activator, single point]	
COc1ccccc1NC(=O)Cn1nnc(-c2ccccc2NS(=O)(=O)c2ccccc2)n1	inconclusive: 16.4 µM [falling, single point]	
NC(=O)C1CCCN(C(=S)Nc2ccccc2)C1 (stereo not given)	inconclusive: 2.91 µM [activator, partial curve]	
Cc1cccc(NC(=O)C[n+]2ccc(N(C)C)cc2)c1	inconclusive: 16.4 µM [falling, partial curve, poor fit]	
COc1cc(Cl)ccc1Nc1ncc(C(=O)N2CCN(c3ccccc3OC)CC2)c2ccccc12		inactive: 1.91% [at 9.27 µM]
O=C(Cc1cccs1)Nc1cccc(-c2nc3cc4ccccc4cc3[nH]2)c1	inconclusive: 2.59 µM [activator, partial curve]	
CCN(Cc1ccc2c(c1)OCCO2)C(=O)CSc1nc(C)nc2sc(C)c(C)c12	inconclusive: 18.4 µM [falling, single point]	
O=C(COC(=O)/C=C/c1cccc(C(F)(F)F)c1)NC(=O)NCc1ccco1	inactive	
COc1cccc(CC(NC(C)=O)C(=O)NC2CCN(c3c(Cc4ccccc4)c(C)nc4ncnn34)CC2)c1 (stereo not given)	inconclusive: 3.66 µM [activator, partial curve, poor fit]	
CCn1c(COC(=O)CNC(=O)c2cc(OC)c(OC)c(OC)c2)nc2cc(S(=O)(=O)N(C)C)ccc21	inactive	
COc1cccc(CNc2ccc3c(c2)ncn3C(C)C)c1OC	inconclusive: 8.2 µM [activator, partial curve]	
COc1ccc(-n2nc(C(=O)N3CCN(c4ccccc4OC)CC3)c3c4ccccc4n(C)c3c2=O)cc1	inconclusive: 1.64 µM [activator, full curve, poor fit]	
CCOc1ccc(S(=O)(=O)N(C)c2ccc(OCC(=O)NC3=NCCS3)cc2)cc1	inconclusive: 25.9 µM [activator, partial curve, poor fit]	
CC(=O)NC(c1ccc(Cl)cc1Cl)c1ccc2cccnc2c1O (stereo not given)	inconclusive: 25.9 µM [falling, partial curve, poor fit]	
O=C(CCCn1c(=S)[nH]c2cc3c(cc2c1=O)OCO3)N1CCN(c2ccc(Cl)cc2)CC1	inconclusive: 29.1 µM [falling, single point]	
CCNc1nc(Nc2ccc(C)c(Cl)c2)c2cnn(C)c2n1	inconclusive: 16.4 µM [falling, partial curve]	
S=c1nc(C2COc3ccccc3O2)[nH][nH]1 (stereo not given)	inconclusive: 4.61 µM [activator, full curve]	

SMILES	Potency	activity change, negative = inhibition
S=C(NCCc1ccccc1)Nc1ccc(Br)cc1	inconclusive: 23.1 µM [falling, single point]	
Cc1ccc(C(=O)Nc2cccnc2)cc1S(=O)(=O)N1CCCC1	inconclusive: 0.82 µM [activator, partial curve, poor fit]	
Cc1nc(NCc2ccccn2)c2ccccc2n1	active: 6.51 µM	
CCOC(=O)C1CCN(C(=O)c2cc3cc(C)ccc3[nH]2)CC1	inconclusive: 3.66 µM [activator, full curve, poor fit]	
CCSc1ncnc2c1sc1nc3c(cc12)COC(C)(C)C3	inconclusive: 4.11 µM [activator, full curve]	
CC1CCCN(S(=O)(=O)c2ccc(NC(=O)c3nc(SC(C)C)ncc3Cl)cc2)C1 (stereo not given)	inactive	
COc1ccc(CNC(=O)COc2cc(O)c3c(c2)OC(C)(C)CC3=O)cc1	inconclusive: 16.4 µM [activator, single point]	
CCCCN(Cc1ccccc1)C(=O)c1oc(=O)c2ccccc2c1-c1ccc(C)cc1	inconclusive: 0.146 µM [falling, partial curve, poor fit]	
COc1ccc(Cc2n[nH]c(=S)n2NC(=O)Nc2ccc(C)cc2)cc1	inconclusive: 29.1 µM [activator, single point]	
Cc1ccc(S(=O)(=O)NCCC(c2ccc(F)cc2)c2ccco2)cc1 (stereo not given)	inconclusive: 5.17 µM [falling, partial curve, poor fit]	
COc1ccc(C(=O)COc2ccc(C(C)=O)cc2OC)cc1OC	inconclusive: 25.9 µM [falling, single point]	
O=C(CCC(=O)N1CCCCCC1)NCc1ccc(F)cc1	inactive	
COc1cccc(N/C(N)=N/c2nc(C(F)(F)F)cc(C(F)(F)F)n2)c1	inconclusive: 32.6 µM [falling, single point]	
COc1ccc(-c2cc(-c3ccco3)[nH]c(=O)c2C#N)cc1	inconclusive: 32.6 µM [falling, single point]	
CCN1C(=O)c2cccc3c(S(=O)(=O)N(C(=O)c4ccncc4)c4ccc(OC)cc4)ccc1c23	inactive	
O=C(NC(=C(Cl)Cl)S(=O)(=O)c1ccc(Cl)cc1)c1ccccc1	inconclusive: 29.1 µM [falling, single point]	
Cc1cccc(C)c1NC(=O)c1cc(S(=O)(=O)N2CCc3ccccc32)cn1C	inactive	
CCCc1ccc(-c2c(C)sc(NC(=O)c3ccnn3C)c2C#N)cc1	active: 13 µM	
Cc1ccc(N/C(N)=N/c2nc(CSc3ccccn3)cc(=O)[nH]2)c(C)c1	inconclusive: 16.4 µM [falling, single point]	
Cn1c(CO)cnc1SCc1ccc(F)cc1	inconclusive: 1.46 µM [activator, full curve]	
CCOC(=O)C1CCCN(S(=O)(=O)c2ccc(S(=O)(=O)N3CCCC3)cc2)C1 (stereo not given)	active: 8.2 µM	
O=C(N/N=C/C1CC=CCC1)c1ccc(Cl)cc1O (stereo not given)	inconclusive: 16.4 µM [activator, partial curve, poor fit]	

Grouped by structure: the compounds so far with an NH in an aromatic ring
SMILES	Potency	activity change, negative = inhibition
Cc1ccc(C(=O)N2CCC(c3c[nH]c4ccccc34)(c3c[nH]c4ccccc34)CC2)cc1	inconclusive: 29.1 µM [falling, single point]	
O=C(Cc1cccs1)Nc1cccc(-c2nc3cc4ccccc4cc3[nH]2)c1	inconclusive: 2.59 µM [activator, partial curve]	
O=C(CCCn1c(=S)[nH]c2cc3c(cc2c1=O)OCO3)N1CCN(c2ccc(Cl)cc2)CC1	inconclusive: 29.1 µM [falling, single point]	
S=c1nc(C2COc3ccccc3O2)[nH][nH]1 (stereo not given)	inconclusive: 4.61 µM [activator, full curve]	
CCOC(=O)C1CCN(C(=O)c2cc3cc(C)ccc3[nH]2)CC1	inconclusive: 3.66 µM [activator, full curve, poor fit]	
COc1ccc(Cc2n[nH]c(=S)n2NC(=O)Nc2ccc(C)cc2)cc1	inconclusive: 29.1 µM [activator, single point]	
COc1ccc(-c2cc(-c3ccco3)[nH]c(=O)c2C#N)cc1	inconclusive: 32.6 µM [falling, single point]	
Cc1ccc(N/C(N)=N/c2nc(CSc3ccccn3)cc(=O)[nH]2)c(C)c1	inconclusive: 16.4 µM [falling, single point]	

Laid out differently: results already given.
SMILES | Potency | activity change, negative = inhibition
COc1ccc(Cc2n[nH]c(=S)n2NC(=O)Nc2ccc(C)cc2)cc1 | inconclusive: 29.1 µM [activator, single point] | 
Cc1cccc(C)c1NC(=O)c1cc(S(=O)(=O)N2CCc3ccccc32)cn1C | inactive | 

Next results follow.

SMILES	Potency	activity change, negative = inhibition
COc1ccc(-c2nc(Cn3c(SCc4ccc(F)cc4)nc4ccncc43)c(C)o2)cc1OC	inconclusive: 29.1 µM [falling, single point]	
O=C(NN=C(Cc1ccccc1)Cc1ccccc1)c1ccccc1O	inconclusive: 18.4 µM [activator, single point]	
Cc1cc(C)c(NC(=O)c2cccc3c2C(=O)N(C2CCCCC2)C3)c(C)c1	inconclusive: 18.4 µM [falling, single point]	
Cc1cccc(N2CCN(S(=O)(=O)c3c(C)[nH]c(C)c3C(=O)N3CCCC3)CC2)c1C	inconclusive: 18.4 µM [falling, single point]	
CCOc1c(Cl)cc(C(=O)Nc2cccc(C(=O)O)c2)cc1Cl	inconclusive: 25.9 µM [activator, single point]	
COc1cccc(/C=C2/C(=O)NN(c3ccc(C)c(C)c3)C2=O)c1	inactive	
Cc1nc(-c2ccncc2)sc1C(=O)Nc1ccc(Cl)cc1	inconclusive: 6.51 µM [falling, full curve, poor fit]	
COc1cc(/C=C(\C#N)c2nc3ccc(C)cc3[nH]2)cc([N+](=O)[O-])c1O	inconclusive: 2.31 µM [activator, full curve]	
CCOc1cc(Br)cc(/C=C2\SC(=Nc3ccccc3)NC2=O)c1O	inactive	
O=C(/C=C/c1ccco1)NCCc1ccccc1	inconclusive: 16.4 µM [activator, partial curve]	
CN1CCN(c2ccc(NC(=O)c3cc(Cl)c4c(c3)OCCO4)cc2)CC1	inactive	
Cc1cc(C)n2nc(-c3cccc(Br)c3)cc2n1	inconclusive: 5.17 µM [activator, partial curve]	
CCOc1ccc(-n2cc(C(=O)Nc3cccc(C)n3)c3cc(OC)c(OC)cc3c2=O)cc1	inconclusive: 23.1 µM [falling, partial curve, poor fit]	
COc1ccc(N2CC(O)=C(c3nc4ccccc4s3)C2=N)cc1	inconclusive: 3.66 µM [activator, partial curve, poor fit]	
COc1ccc(NC(=O)c2sc3nc(N4CCOCC4)c4c(c3c2N)CC(C)(C)OC4)c(OC)c1	inconclusive: 23.1 µM [activator, single point]	
O=C(O)COc1ccc(-c2nccc(-c3ccccn3)n2)cc1	active: 2.06 µM	
Cc1cc([N+](=O)[O-])c(-c2ccc(/C=N/n3cnnc3)o2)cc1Cl	inconclusive: 16.4 µM [falling, single point]	
O=C(CCN=C1NS(=O)(=O)c2ccccc21)Nc1ccc(F)cc1Cl	active: 9.2 µM	
Cc1ccc2nc(N/N=C/c3ccco3)cc(C)c2c1	inconclusive: 20.6 µM [activator, partial curve]	
CC(C)c1nc(C(=O)N2CCCC(N3CCN(c4cccc(Cl)c4)CC3)C2)cs1 (stereo not given)	inconclusive: 29.1 µM [falling, single point]	
O=C(NNC(=O)c1cccc2ccccc12)c1ccc(F)cc1	inconclusive: 5.17 µM [activator, partial curve, poor fit]	
